Among the data in PubChem BioAssay AID2685 (National Center for Advancing Translational Sciences (NCATS), 2010) are cell number change and AC50 values, retold here.

Each structure is given as a SMILES string. The list shows a part of the results. Further columns of the screen follow, without active or inactive calls. Most of these compounds were active or inconclusive in the main read-out, so they are no random draw. The note in brackets gives the kind of curve behind each potency; many fits are weak.

A short description of the assay: qHTS Assay for Lipid Storage Modulators in Drosophila S3 Cells.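 On cell number change: cells counted by Cell Tracker Red CMTPX staining in the red channel.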 As to conditions: BODIPY lipid droplet fluorescence, 18-24 h; for cell number change: measured here: cell count max response, cells fed with added oleic acid. The procedure, abridged: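 Drosophila S3 cells got compounds at several concentrations plus oleic acid (400 uM solution). Laser-scanning cytometry with 488 nm excitation read lipid droplets at 500-530 nm and cells at 575-640 nm. Percent activity was relative to 20 uM Triacsin C.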

Where [1] appears, read: measured here: cell number channel AC50, cells fed with added oleic acid.
Setting [2] is: measured here: lipid fluorescence (Fed channel) AC50, cells fed with added oleic acid.

For orientation: AC50 means the concentration giving half of the maximal activity seen. With `Cc1ccc2c(c1)N(CC(=O)NCc1cccs1)C(=O)C(C)O2` (stereo not drawn), the cell number change is -40%. The half-maximal activity concentration (AC50) under setting [1] is 9.2 µM [falling, partial curve, poor fit]. In addition, the concentration at half-maximal activity (AC50) under setting [2] was 0.0461 µM [falling, full curve].

As to `C/C(=N\NC(=O)c1cc(C)[nH]n1)c1cccs1`, the cell number change was -16.9%. Moreover, the AC50 under setting [1] was 0.13 µM [falling, full curve, poor fit].

Consider `O=C(CSc1nnc(CNC(=O)c2ccccc2)o1)c1ccccc1`, for which the cell number change amounted to 27.5%. The AC50 under setting [2] is 4.47 µM [rising, partial curve].

Take `COCCNC(=O)Cn1cnc2sc(C)c(S(=O)(=O)N3CCN(c4ccccc4OC)CC3)c2c1=O`: the cell number change was 20.8%. Besides, under setting [2], the AC50 is 1.16 µM [falling, single point].

Regarding `N#Cc1c(-c2ccccc2)nc(-c2cccnc2)[nH]c1=O`, the cell number change worked out at 19.8%. Further, the half-maximal activity concentration (AC50) under setting [2] was 18.4 µM [rising, partial curve].

As for `NC(=O)Cc1ccc(C(=O)c2ccccc2)s1`, the cell number change amounted to 31.5%. Besides, the AC50 under setting [1] was 0.00411 µM [rising, full curve, poor fit]. The AC50 under setting [2] was 20.6 µM [rising, single point].

Consider `Cc1ccc(CN2C(=O)CCC2C(=O)NCCCN2CCCC(C)C2)cc1` (stereo not drawn), for which the cell number change is -91.5%. Further, the AC50 under setting [1] is 3.26 µM [falling, full curve]. Moreover, the concentration at half-maximal activity (AC50) under setting [2] was 2.91 µM [falling, full curve].

`CCC/C(=N\NC(=O)c1ccco1)c1ccc(Cl)s1`: the cell number change was -3.97%.

Take `COc1ccccc1N1CCN(C(=O)c2ccccc2SCC(=O)NCc2ccco2)CC1`: the AC50 under setting [1] was 1.46 µM [rising, partial curve, poor fit].

As to `Cc1cccc(NC(=O)CCN2CCCC(C)C2)c1` (stereo not drawn), the cell number change was 3.94%. The AC50 under setting [2] is 29.1 µM [rising, single point].

Consider `O=C(Nc1ccccc1C(F)(F)F)c1cc(-c2ccc(O)cc2)on1`, for which the cell number change was -61.7%. For the same molecule, under setting [1], the AC50 was 18.4 µM [falling, partial curve]. Further, the AC50 under setting [2] is 29.1 µM [falling, single point].

As to `O=C(OCCc1cc2ccccc2c(=O)o1)c1cccs1`, the cell number change is -6.66%. In addition, the AC50 under setting [2] is 0.651 µM [falling, single point].

Turning to `CSc1nc(C(=O)N2CCCC(Nc3ccc(C)c(C)c3)C2)cs1` (stereo not drawn), the cell number change amounted to 5.25%. Further, the AC50 under setting [1] is 3.55 µM [rising, partial curve, poor fit]. Moreover, the AC50 under setting [2] is 1.78 µM [rising, partial curve].

Regarding `Cc1nn2c(-c3ccccn3)ccnc2c1Cl`, the cell number change came to 22.4%. Further, the AC50 under setting [1] is 0.0731 µM [rising, full curve, poor fit]. Besides, the concentration at half-maximal activity (AC50) under setting [2] was 0.103 µM [rising, full curve, poor fit].

For the molecule `COc1ccc(CCNCC(C)c2ccccc2)cc1` (stereo not drawn), the cell number change is 34.2%. For the same molecule, the AC50 under setting [1] was 4.11 µM [rising, full curve, poor fit].

As for `CCC(C)[C@H](NC(=O)[C@@H]1CSC2c3ccccc3C(=O)N21)C(=O)NCc1ccco1` (stereo partly drawn), the cell number change came to 23.3%.

Take `CC(Oc1ccc2ccc(=O)oc2c1)C(=O)N1CCOCC1` (stereo not drawn): the cell number change was -43.4%. Under setting [1], the AC50 was 4.11 µM [falling, full curve]. Also, the AC50 under setting [2] was 5.17 µM [falling, full curve].

With `CC1(c2cnc(Nc3ccccc3)s2)CCC(=O)O1` (stereo not drawn), the cell number change was 12%. For the same molecule, the AC50 under setting [1] was 5.17 µM [falling, single point]. Also, under setting [2], the AC50 was 6.51 µM [rising, single point].

On to `Cn1nnc(NC(=S)NC(=O)c2cccc3c(Cl)cccc23)n1`, for which the cell number change is -4.25%. Also, the AC50 under setting [2] is 6.51 µM [rising, single point].

Regarding `CN(CC(=O)Nc1cccc(F)c1)C(=O)c1cc(S(=O)(=O)N(C)C)ccc1N1CCCC1`, the cell number change was determined as 3.02%. The AC50 under setting [2] was 23.1 µM [rising, partial curve].

Regarding `COc1ccc(C)cc1NC(=O)CN1C(=O)COc2ccc(S(=O)(=O)N3CCOCC3)cc21`, the cell number change was determined as 1.48%.

With `Cc1cccc(Nc2nc3ccccc3s2)c1C`, the cell number change was 47.3%. Further, the concentration at half-maximal activity (AC50) under setting [1] was 29.1 µM [rising, single point]. The AC50 under setting [2] was 2.31 µM [rising, partial curve].

Consider `O=C(C1CCCN(Cc2cccc(Cl)c2)C1)N1CCCCC1` (stereo not drawn), for which the cell number change is 8.66%. Further, the AC50 under setting [2] was 10.3 µM [rising, partial curve, poor fit].

With `O=c1cnnc(N/N=C/c2cccs2)[nH]1`, the cell number change is 53%. The AC50 under setting [1] was 29.1 µM [rising, single point].

Consider `CC1=C(C(=O)Nc2ccccc2)C(c2ccco2)C(C#N)=C(SCC(N)=O)N1` (stereo not drawn), for which the cell number change amounted to 105%. The AC50 under setting [1] was 0.651 µM [rising, single point]. Moreover, the AC50 under setting [2] was 1.3 µM [rising, full curve].

For the molecule `CCOC(=O)c1c(S(=O)(=O)N2CCC(C)CC2)c(C)n(C)c1C`, the AC50 under setting [2] was 0.58 µM [falling, single point].

In the case of `O=C(OCC(=O)N1CCN(C(=O)c2ccco2)CC1)c1cccc(S(=O)(=O)N2CCc3ccccc32)c1`, the cell number change is -37.6%. Besides, the AC50 under setting [2] is 0.259 µM [falling, full curve].

Turning to `CN1CC(=O)N/C1=N\C(=O)Nc1ccc(O)cc1`, the cell number change came out at 24.8%. Under setting [1], the half-maximal activity concentration (AC50) was 4.11 µM [rising, full curve, poor fit]. The AC50 under setting [2] is 23.1 µM [rising, single point].

As to `COc1ccc(CC(=O)Nc2ccc(S(=O)(=O)Nc3onc(C)c3C)cc2)cc1OC`, the cell number change is -9.52%.

For `CCN(CC)CCC(c1cc(OC)c(OC)c(OC)c1)c1c(OC)cc(OC)c2c(-c3ccccc3)cc(=O)oc12` (stereo not drawn), the cell number change was found to be 2.05%. Moreover, the AC50 under setting [2] is 2.06 µM [rising, full curve, poor fit].

Regarding `Cc1cc(NC(=O)C(C)SCC(=O)Nc2cc(Cl)ccc2N2CCN(C)CC2)no1` (stereo not drawn), the AC50 under setting [2] was 0.00517 µM [falling, full curve, poor fit].

Take `CCc1nnc(NC(=O)CSc2nc(-c3ccccc3)nc3ccccc23)s1`: the cell number change was 13.5%. Besides, the AC50 under setting [2] was 29.1 µM [rising, partial curve, poor fit].

On to `Cc1cc(C)n(CC(=O)N2c3ccccc3Sc3ccc(C(F)(F)F)cc32)n1`, for which the cell number change is 39.3%. Under setting [1], the AC50 was 9.2 µM [rising, partial curve]. For the same molecule, under setting [2], the AC50 was 3.26 µM [rising, single point].

Regarding `Cn1c(=O)[nH]c(=O)c2c1nc(Br)n2CCCCSc1nc2ccccc2o1`, the cell number change turned out to be 9.37%. The AC50 under setting [2] is 0.731 µM [rising, single point].

Regarding `N#CC1(NC(=O)COC(=O)/C=C/c2ccc3ccccc3n2)CCCCC1`, the cell number change was found to be 8.11%. In addition, the AC50 under setting [2] was 0.0058 µM [rising, full curve, poor fit].

With `CCn1c(SCC(=O)c2cccs2)nnc1-c1ccco1`, the cell number change turned out to be 0.343%. For the same molecule, under setting [2], the AC50 was 0.116 µM [falling, full curve, poor fit].

On to `Cc1ccccc1CSc1nnc(NC(=O)C2COc3ccccc3O2)s1` (stereo not drawn), for which the cell number change turned out to be 1.53%. The AC50 under setting [2] was 0.103 µM [falling, partial curve, poor fit].

In the case of `COCCNc1ccc(S(=O)(=O)N2CCCC2)cc1[N+](=O)[O-]`, under setting [1], the AC50 is 1.3 µM [falling, single point].

Regarding `Cc1ccc2c(c1)C1CN(C)CCC1N2C(=S)NC(=O)c1ccc(Cl)cc1Cl` (stereo not drawn), the cell number change worked out at 14.4%. The AC50 under setting [2] was 8.2 µM [rising, partial curve, poor fit].

For the molecule `CSc1cccc(NC(=O)CNC(=O)c2ccc3c(c2)OCO3)c1`, the AC50 is 2.59 µM [rising, partial curve] under setting [1] and 0.651 µM [rising, partial curve] under setting [2].

With `COc1ccc(Cl)cc1NC(=O)C(C)N1CCc2ccccc21` (stereo not drawn), the cell number change was determined as 4.96%. The concentration at half-maximal activity (AC50) under setting [1] was 0.092 µM [falling, full curve, poor fit].

In the case of `CC1(C)CC2CC(C)(CN2C(=O)COC(=O)c2ccc(Cl)cc2N)C1` (stereo not drawn), the cell number change amounted to 28.1%. The AC50 under setting [1] is 3.66 µM [rising, full curve, poor fit].

For the molecule `Cc1cc(NC(=O)c2cncc(Br)c2)no1`, the cell number change was found to be 21%. For the same molecule, the AC50 under setting [2] was 6.51 µM [falling, single point].

In the case of `COCC(C)NC(=O)CSc1nc2cc(S(=O)(=O)N3CCCCC3)ccc2o1` (stereo not drawn), the cell number change was -1.9%. Moreover, the AC50 under setting [2] was 6.51 µM [rising, single point].

In the case of `O=C(Nc1cccc(S(=O)(=O)N2CCCC2)c1)c1ccncc1`, the cell number change was -21.8%. In addition, under setting [2], the AC50 was 16.4 µM [falling, partial curve].

With `O=C(NCc1cccnc1)c1cc([N+](=O)[O-])ccc1N1CCOCC1`, the cell number change was determined as 12.1%. Also, the AC50 under setting [2] is 0.00461 µM [falling, full curve, poor fit].

On to `Cc1c(Cl)cccc1Nc1ncccc1C(=O)OCC(O)CO` (stereo not drawn), for which the cell number change amounted to 9.76%. Under setting [2], the half-maximal activity concentration (AC50) is 1.03 µM [rising, partial curve].

On to `Cc1cc(C)cc(-n2c(C)cc(/C=N/NC(=O)c3cccc([N+](=O)[O-])c3C)c2C)c1`, for which, under setting [1], the AC50 is 0.116 µM [rising, single point].

Regarding `COc1ccc(OC(=O)CCN2C(=O)C3C4C=CC(C4)C3C2=O)cc1` (stereo not drawn), the cell number change was -36.5%. Moreover, the AC50 under setting [1] was 13 µM [falling, single point].

Turning to `Cc1cnc(C(=O)Nc2cccc3ncccc23)cn1`, the cell number change was found to be 43.8%. In addition, the AC50 under setting [1] is 9.2 µM [rising, partial curve]. Further, the AC50 under setting [2] is 0.116 µM [falling, single point].

`CCC(C)NC(=O)c1ccc(NC(=O)CC2SC(N3CCCC3)=NC2=O)cc1` (stereo not drawn): the cell number change turned out to be 42.9%. In addition, the AC50 under setting [1] is 0.231 µM [rising, full curve, poor fit]. Under setting [2], the AC50 was 5.8 µM [rising, partial curve, poor fit].

As for `O=C(CSc1nccn1-c1ccc(F)cc1)NCc1ccc(F)cc1`, the cell number change worked out at 29.5%. Further, under setting [2], the AC50 is 0.082 µM [rising, full curve, poor fit].

As to `CCCCn1c(NC(=O)c2ccccc2Cl)c(C#N)c2nc3ccccc3nc21`, the cell number change was -19.9%. Further, under setting [2], the AC50 is 20.6 µM [falling, partial curve].

Regarding `O=C(NCc1ccc(Cl)cc1)c1cc2ccccc2oc1=O`, the cell number change is -44.7%. Moreover, the AC50 under setting [1] was 13 µM [falling, partial curve, poor fit].

As to `COc1cccc(N=Nc2c(C)[nH]n(-c3ccccc3)c2=O)c1`, the cell number change is -41.9%. In addition, the AC50 under setting [1] is 16.4 µM [falling, partial curve]. Moreover, under setting [2], the AC50 was 1.46 µM [falling, partial curve].

For the molecule `COCCN(C(=O)COC(=O)c1nc(Cl)ccc1Cl)c1c(N)n(Cc2ccccc2)c(=O)[nH]c1=O`, the cell number change amounted to 75%. Also, the AC50 under setting [1] is 9.2 µM [rising, partial curve].
